Results deposited as PubChem BioAssay AID1671195 (Yale University, 2021)

Aim: 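Knockdowns that increase or decrease uptake of fluorescent LDL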 (primary screen)
System: human Huh7 hepatoma cells
Knock-down reagent: siRNA pool against human genes, 18 nM
Duration: about 2 to 2.5 days of knockdown, then 8 h LDL uptake
Conditions: DiI-labelled LDL at 30 µg/ml for 8 h, in lipoprotein-deficient serum medium
Read-out: 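Per-cell DiI-LDL intensity by automated imaging; well means scaled to the plate median and given as a robust z-score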
Scale: robust z-score: higher = more LDL uptake after knockdown
Rule for the call: 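a gene counts as active if at least two replicate z-scores exceed ±2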
The deposit covers about 22,000 reagents; shown is a part drawn at random. Of all reagents, about 1,510 (6.9%) got an active call. 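Active includes knockdowns raising or lowering LDL uptake; positive z-scores mean more uptake, negative mean less.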 Unmarked entries are inactive. Reagents against one gene are numbered here.

no.	Gene	pool no.	robust z-score, replicate 1	robust z-score, replicate 2	robust z-score, replicate 3
1	ZNF83 (zinc finger protein 83)	1	0.89	0.172	0.142
2	TBC1D29P (TBC1 domain family member 29, pseudogene)	1	-1.18	-0.699	0.309
3	CSAD (cysteine sulfinic acid decarboxylase)	1	-0.749	-0.0937	-0.541
4	TBC1D2 (TBC1 domain family member 2)	1	-0.769	-1.07	-0.698
5	TMEM87B (transmembrane protein 87B)	1	1.83	1.01	2.5
6	RPS2 (ribosomal protein S2)	1	-1.13	-0.273	0.804
7	KRABD3 (KRAB domain containing 3)	1	-0.711	-0.0237	-0.237
8	AMOTL2 (angiomotin like 2)	1	0.033	1.03	0.502
9	POM121L2 (POM121 transmembrane nucleoporin like 2)	1	0.782	0.21	0.393
10	POM121L2 (POM121 transmembrane nucleoporin like 2)	2	0.974	-0.646	0.145
11	ATP6V0C (ATPase H+ transporting V0 subunit c)	1	-0.917	-1.03	-1.07
12	USP2 (ubiquitin specific peptidase 2)	1	-0.825	-0.845	-1.2
13	LIPC (lipase C, hepatic type)	1	0.182	0.418	0.434
14	OR2Y1 (olfactory receptor family 2 subfamily Y member 1)	1	-0.0713	0.439	-0.231
15	TMEM132E (transmembrane protein 132E)	1	0.204	-0.604	0.111
16	LRIT3 (leucine rich repeat, Ig-like and transmembrane domains 3)	1	1.35	1.18	2.05
17	ZFYVE1 (zinc finger FYVE-type containing 1)	1	-0.777	0.409	-2.05
18	PCDHGC4 (protocadherin gamma subfamily C, 4)	1	2.71 (active)	1.93	1.76
19	ILF3 (interleukin enhancer binding factor 3)	1	-0.819	-0.444	-0.766
20	CHST14 (carbohydrate sulfotransferase 14)	1	6.24 (active)	3.19	5.69
21	ZNF847P (zinc finger protein 847, pseudogene)	1	1	1.39	1.92
22	TMSB15A (thymosin beta 15A)	1	0.723	1.35	1.45
23	ADGRA1 (adhesion G protein-coupled receptor A1)	1	0.196	1.77	0.46
24	GALNT4 (polypeptide N-acetylgalactosaminyltransferase 4)	1	-0.599	-0.798	-0.557
25	ASPHD1 (aspartate beta-hydroxylase domain containing 1)	1	0.526	0.539	0.635
26	ANXA7 (annexin A7)	1	0.151	-0.907	-0.686
27	DGKB (diacylglycerol kinase beta)	1	0.253	0.201	-0.3
28	ANAPC16 (anaphase promoting complex subunit 16)	1	-1.36	-0.884	-0.723
29	MIS18BP1 (MIS18 binding protein 1)	1	0.45	1.37	0.74
30	NPHS2 (NPHS2 stomatin family member, podocin)	1	0.243	1.37	0.254
31	GPR42 (G protein-coupled receptor 42)	1	-0.0798	0.0998	0.121
32	RPP25 (ribonuclease P/MRP subunit p25)	1	-0.967	-1.1	-0.155
33	PLSCR1 (phospholipid scramblase 1)	1	-1.05	-0.00921	-0.473
34	SMIM43 (small integral membrane protein 43)	1	2.24 (active)	3.18	1.82
35	ARB2A (ARB2 cotranscriptional regulator A)	1	0.196	-0.0768	1.15
36	TGFA (transforming growth factor alpha)	1	0.118	-0.0467	-0.0759
37	LOC441834 (retired record)	1	-1.02	-0.735	-1.08
38	GPS2P1 (G protein pathway suppressor 2 pseudogene 1)	1	-0.969	0.279	0.654
39	TASOR2 (transcription activation suppressor family member 2)	1	-0.74	1.08	0.605
40	RENBP (renin binding protein)	1	-0.486	-0.511	-0.221
41	LOC441761 (retired record)	1	0.377	1.87	1.25
42	MVP (major vault protein)	1	-0.298	-0.63	-1.5
43	SOD1 (superoxide dismutase 1)	1	4.37 (active)	4.69	3.65
44	LOC441999 (retired record)	1	0.177	-0.0669	0.128
45	KCNA4 (potassium voltage-gated channel subfamily A member 4)	1	-1.27	-0.869	-1.7
46	TMED2 (transmembrane p24 trafficking protein 2)	1	-0.654	0.291	-1.43
